# Laboratory results published in PubChem BioAssay AID1487 (National Center for Advancing Translational Sciences (NCATS), 2009).
# The other results are listed elsewhere or left out. These are further read-outs of the screen, such as a control signal, another cell line or another target. No call is given for them. The list favours compounds with an active or inconclusive main result. The note in brackets gives the kind of curve behind each potency; many fits are weak.
# Assay: qHTS Assay for Modulators of Lamin A Splicing
# Settings: HeLa LMNA splicing GFP/RFP minigene ratio, 48 h
# How it was run: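 Read-out is the ratio of GFP to DsRed2 object intensity, acquired by 488 nm laser-scanning cytometry on HeLa lamin A-EGFP minigene reporter cells. Compound incubation 48 hrs at 37 °C in Opti-MEM with 2% FBS; DMSO 0.5% final.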
# [1] = measured here: RFP viability control channel
# [2] = measured here: GFP splicing reporter channel
SMILES,AC50 [1],AC50 [2]
CC(C)(C)c1ccc(C(=O)NC(=S)Nc2ccc(N3CCOCC3)cc2)cc1,"7.94 µM [rising, partial curve, poor fit]",–
CCN1C(=O)/C(=C\c2nc3ccccc3c(=O)n2-c2ccccc2)c2ccccc21,"25.1 µM [rising, single point]",–
Nc1c(S(=O)(=O)O)cc(Nc2ccc(Nc3nc(Cl)nc(Nc4ccc(S(=O)(=O)O)cc4)n3)c(S(=O)(=O)O)c2)c2c1C(=O)c1ccccc1C2=O,"3.55 µM [falling, full curve, poor fit]","4.47 µM [falling, partial curve, poor fit]"
O=C(NCC1CCCO1)c1ccc(COc2ccc(Br)cc2)cc1 (stereo unspecified),"11.2 µM [rising, partial curve]",–
N#Cc1c(NC(=O)CSc2nnc(-c3ccncc3)n2CC2CCCO2)sc2c1CCCC2 (stereo unspecified),"11.2 µM [rising, partial curve, poor fit]","7.94 µM [rising, partial curve, poor fit]"
CC(=O)c1ccc(NC(=O)C(C)Nc2ccc(Cl)cc2)cc1 (stereo unspecified),"0.0224 µM [rising, full curve, poor fit]","5.62 µM [rising, partial curve]"
O=C(CCCN1C(=O)c2cccc3cccc(c23)C1=O)NC1CCS(=O)(=O)C1 (stereo unspecified),"31.6 µM [falling, partial curve]","25.1 µM [falling, partial curve]"
CC(=O)N1CCN(Cc2nc3cc(Cl)ccc3c(=O)[nH]2)CC1,"0.0178 µM [falling, full curve]","0.1 µM [falling, full curve]"
CN(C)CC#Cc1cncc(C(=O)NNC(=O)Nc2ccc(Cl)cc2)c1,"3.98 µM [rising, single point]",–
O=C(CN1C(=O)/C(=C/c2cccc(Br)c2)SC1=S)NC1=NCCS1,"4.47 µM [rising, partial curve, poor fit]",–
COc1ccc2nc(NC(=O)c3ccc(NS(=O)(=O)c4cccs4)cc3)sc2c1,"14.1 µM [rising, single point]",–
c1csc(CNc2ncnc3nc[nH]c23)c1,"15.8 µM [rising, single point]",–
COC(=O)C(C)(C)ONC(=O)Nc1ccccc1Cl,"3.55 µM [falling, partial curve]",–
Cc1ccc(-n2ncc3c(=O)n(CC(=O)NCc4ccco4)cnc32)cc1C,"10 µM [rising, partial curve, poor fit]",–
C=CCn1c(COc2ccccc2F)nnc1SCC(=O)c1c[nH]c2ccccc12,"14.1 µM [rising, partial curve]","12.6 µM [rising, partial curve]"
Cc1ccc(-c2csc3nc[nH]c(=S)c23)cc1C,"17.8 µM [falling, partial curve, poor fit]","20 µM [falling, partial curve, poor fit]"
O=C(O)c1ccc(/C=C/c2nc3sc4c(c3c(=O)[nH]2)CCC4)cc1,–,"1.12 µM [rising, partial curve]"
COc1ccc(NC(=O)/C(C#N)=C\c2ccc(N3CCOCC3)o2)cc1,"25.1 µM [falling, partial curve, poor fit]","35.5 µM [falling, single point]"
COc1ccc(C)cc1NC(=O)CSc1nnc(COc2ccc(Cl)cc2)n1Cc1ccco1,"8.91 µM [rising, partial curve, poor fit]",–

# Copied from the list:
# AC50 [2], `Cc1ccc(-c2csc3nc[nH]c(=S)c23)cc1C` is entered as 20 µM [falling, partial curve, poor fit]
# AC50 [1], `O=C(CN1C(=O)/C(=C/c2cccc(Br)c2)SC1=S)NC1=NCCS1` is entered as 4.47 µM [rising, partial curve, poor fit]
# AC50 [2], `C=CCn1c(COc2ccccc2F)nnc1SCC(=O)c1c[nH]c2ccccc12` is entered as 12.6 µM [rising, partial curve]

# Continued:

SMILES,AC50 [1],AC50 [2]
O=S(=O)(/C=C/c1ccccc1)Nc1ccc2c(c1)OCO2,"20 µM [rising, partial curve, poor fit]","14.1 µM [rising, partial curve]"
Cc1sc2ncnc(N3CCCCC3C)c2c1C (stereo unspecified),"31.6 µM [rising, single point]",–
COC(=O)c1cc(=O)n(CCc2ccccc2)c(=Nc2ccc(F)cc2)s1,"22.4 µM [rising, single point]",–
CC(=O)c1ccc(NC(=O)COC(=O)c2nc(Cl)ccc2Cl)cc1,"35.5 µM [rising, single point]",–
Cc1c(C(=O)NCc2ccc(Cl)cc2)sc2nc3n(c(=O)c12)CCCCC3,–,"0.00316 µM [falling, full curve]"
CC(C)Oc1ccc(C(=O)NC2=NCCS2)cc1,–,"35.5 µM [rising, partial curve, poor fit]"
CCSc1nnc(-c2ccc(S(=O)(=O)NCc3cccs3)cc2)o1,"35.5 µM [rising, single point]","17.8 µM [rising, single point]"
COc1ccc(NC(=S)Nc2cccc3cnccc23)cc1,"1 µM [rising, partial curve, poor fit]",–
Clc1ccc2oc3c(Cl)ncnc3c2c1,"35.5 µM [rising, single point]",–
O=C(CN1C(=O)c2ccccc2S1(=O)=O)Nc1ccccc1,–,"0.0141 µM [rising, full curve, poor fit]"
Cc1ccc(S(=O)(=O)N2CCN(C)CC2)c(C)c1N(C)S(=O)(=O)c1ccc(Cl)cc1,"15.8 µM [rising, single point]",–
Cc1cccc(C(=O)N2CCc3cc(CNC(=O)COc4ccc(Cl)cc4)ccc32)c1,"7.94 µM [rising, partial curve]",–
O=c1[nH]c(CSc2nnnn2-c2ccc(Cl)cc2)nc2ccccc12,"0.00447 µM [falling, full curve, poor fit]",–
N#Cc1c(C#N)c(-c2ccccc2)n(-c2ccccc2)c1N,"11.2 µM [rising, partial curve]","8.91 µM [rising, partial curve]"
Cc1nnc(N)nc1C,"0.631 µM [falling, full curve]","0.708 µM [falling, full curve, poor fit]"
Cc1ccc(OCc2nc(C#N)c(N3CCN(Cc4ccccc4)CC3)o2)cc1,"17.8 µM [rising, partial curve]",–
CCN(CC)S(=O)(=O)c1ccc2oc(Nc3ccc4c(c3)OCCO4)nc2c1,"0.794 µM [rising, partial curve]",–
Cc1cccc(NC(=O)c2cn(-c3ccccc3)nc2-c2ccccc2)c1,"0.00447 µM [rising, full curve, poor fit]",–
O=C(CCCN1C(=O)/C(=C/c2cccs2)SC1=S)NNC(=O)c1ccccc1O,"11.2 µM [rising, partial curve, poor fit]",–

SMILES,AC50 [1],AC50 [2]
COc1cc2c(cc1OC)-c1nnc(C)n1C(C)(C)C2,"2.82 µM [falling, full curve, poor fit]",–
O=C1CN(C(=O)CSc2nnnn2-c2ccc(Cl)cc2)c2ccccc2N1,"35.5 µM [rising, single point]","35.5 µM [rising, single point]"
C=CCOc1c(Br)cc(/C=N/O)cc1OCC,"31.6 µM [rising, single point]",–
COC(=O)/C(=N/Nc1ccc(C)cc1)N1CCCc2ccccc21,"15.8 µM [rising, partial curve]",–
Cc1ccc(-n2c(SCC(=O)N/N=C/c3c(C)nn(-c4ccccc4)c3C)nc3ccccc3c2=O)cc1,"3.98 µM [rising, full curve]",–
O=C(Nc1ccccc1N1CCOCC1)C1(c2ccc(Cl)cc2)CCC1,"0.00447 µM [rising, full curve, poor fit]",–
O=C(Nc1ccc(Cl)cc1)Nc1nnc(CSCc2ccc(Cl)cc2)s1,"3.98 µM [rising, partial curve]","3.98 µM [rising, single point]"
COC(=O)c1c(C)oc2ccc(N(C(=O)c3ccncc3)S(=O)(=O)c3ccc(C)cc3C)cc12,"3.16 µM [rising, partial curve]",–
CCOC(=O)c1[nH]c(C)c(CCC(=O)NCc2ccccc2)c1C,"35.5 µM [rising, single point]","28.2 µM [rising, single point]"
O=C(Sc1cccc2cccnc12)c1ccc(F)cc1,"35.5 µM [falling, single point]","12.6 µM [falling, partial curve]"
O=C(O)[C@@H]1C[C@@H](C(=O)O)N1,"5.62 µM [falling, single point]",–
CC(=O)Nc1cccc(NC(=O)Nc2cccc(Cl)c2C)c1,"6.31 µM [falling, single point]","5.62 µM [falling, single point]"
Clc1ccc(N/N=C/c2cccnc2)cc1,"35.5 µM [rising, single point]",–
Cc1ccc(NNc2c(C)nc3ccccc3nc2=O)cc1,"2.51 µM [falling, partial curve]","2.24 µM [falling, partial curve, poor fit]"
COc1cc2c(c(OC)c1OC)CC(=O)N(C)CC2,"0.1 µM [falling, full curve, poor fit]","0.251 µM [falling, full curve, poor fit]"
Cc1ccccc1-c1nc(CS(=O)(=O)CC(=O)N(C)C2CCCCC2)c(C)o1,"8.91 µM [rising, partial curve]",–
O=C(NCC(c1cccnc1)N1CCN(c2ccccc2F)CC1)c1cccc(Cl)c1 (stereo unspecified),"31.6 µM [rising, single point]","35.5 µM [rising, single point]"
Cc1ccc(S(=O)(=O)N2CCN(S(=O)(=O)N(C)C)CC2)c(C)c1,"22.4 µM [rising, single point]",–
